{
  "source": "paper PMC10163288",
  "binders": {"B1": {"name": "il10ra_site1_sap_20_mot_HHH_b1_07932_000000020_0001_21_38_H_._HHH_b1_03085_af2_0001_0000300024_0000001_0_0001 (protein)", "chain": "SSSSDELAQELLELVLEAVRLALRGNPEEAEELLEEAEELARKVGDERALEMVEDLLKALSSSSS"}, "B2": {"name": "il10ra_site1_sap_19_mot_cf6887094a6cbc74a5ee628dd8f6c644_0001_1_af2_000000155_0001_15_32_H_._HHH_b2_06314_0001_0000300023_0000001_0_0001 (protein)", "chain": "SSSSTQEIMKLIEELSEAIQEGDRELAEELIEEIERLIEEEGNFALEFALRVAAEAARRFLSSSS"}, "B3": {"name": "il10ra_site1_sap_31_mot_HHH_b2_03434_000000017_0001_1_19_H_._HHH_b1_05597_0001_0000700032_0000001_0_0001 (protein)", "chain": "SLEEELERLLRELGVPPELIRLLELAFRVQRRQGVPPEDVLRALLYFLEAAGDPAREAVRELLER"}, "B4": {"name": "il10ra_site1_normal_mot_HHH_b2_06786_000000018_0001_41_57_H_._HHH_b1_03836_af2_0001_0000300012_0000002_0 (protein)", "chain": "SSSSSSDFAEIAAEAARIAFRLSDPELLQEVWELFRRYIEEGDERYEEELERLLEEIGSSSSSSS"}, "B5": {"name": "il10ra_site1_normal_mot_HHH_b2_00984_000000042_0001_1_20_H_._HHH_b2_00680_af2_0001_0000100001_0000001_0 (protein)", "chain": "SSSSSSDAEEEARELIEEAEQIEDEEEAVEILAEAVRLALRAGNAELLQEIWKAIKEISSSSSSS"}, "B6": {"name": "il10ra_site1_sap_22_mot_HHH_b1_02420_000000033_0001_20_36_H_._HHH_b2_07350_0001_0000700038_0000002_0_0001 (protein)", "chain": "SIEELVRLIVELAGAPPEVERQLQLTVRAAQDLSPFASEWMQRELEEVIENNDEEAAEEIIRYFK"}, "B7": {"name": "il10ra_site1_sap_21_mot_5fda0655e6834f3f331eaa9f580e88ed_0001_af2_000000239_0001_36_50_H_._HHH_b2_05691_0001_0000700031_0000001_0_0001 (protein)", "chain": "SSSDEAYEAAKRAIERAIELARNGDPEEAQELLREAIELAEELNTQAARWSLEHLLKLIEQSSSS"}, "B8": {"name": "il10ra_site1_sap_12_mot_HHH_b2_00092_000000181_0001_22_39_H_._HHH_b2_07100_0001_0000300011_0000002_0_0001 (protein)", "chain": "SSSSDANEEIYKLIRRALEALANGNPEEAEELLREAEELAREANSPIMEFAIRTAQRNVKSSSSS"}, "B9": {"name": "il10ra_site1_sap_25_mot_HHH_b2_01760_000000115_0001_41_54_H_._f66b54841b0899907a24864da6a818e8_0001_0001_0000100001_0000001_0_0001 (protein)", "chain": "SSSSSEEEEELRELLEEIRRAAEEGDQELVVRLTLEASRLALESGDQELLHEIWRLFVELTSSSS"}, "B10": {"name": "il10ra_site1_normal_mot_HHH_b2_00475_000000107_0001_44_57_H_._HHH_b2_03520_0001_0000400025_0000001_0 (protein)", "chain": "SSSSDEEEVSHLLFRALQLLEEGDKEEAEELVEEAKRIAEESNDPELERYVEIAEHFVKAHSSSS"}, "B11": {"name": "il10ra_site1_sap_14_mot_HHH_b1_05329_000000008_0001_43_56_H_._HHH_b2_01366_0001_0000200013_0000001_0_0001_af2pred_0001 (protein)", "chain": "SSSSDEEQAKRLVEFLLKAARELEDPERRKLTLRDAKHAAEAIGDEELRELVEEVEEELRSSSSS"}, "B12": {"name": "il10ra_site1_normal_mot_HHH_b2_03708_000000000_0001_1_18_H_._HHH_b1_01365_0001_0000200017_0000001_0 (protein)", "chain": "SSSSDEEIQRVSELSLRIFRLLLRGNEEEARELLEEAIELAQEIGDEQLLRVLEHLLQVASSSSS"}, "B13": {"name": "il10ra_site1_sap_15_mot_HHH_b1_02881_000000046_0001_1_20_H_._HHH_b1_00963_af2_0001_0000300030_0000001_1_0001 (protein)", "chain": "SSSSSEEEEEAEELLKEVQRLIEEGNDEEALELIQEALELVIQLGDEEKLQRLWELVKAISSSSS"}, "B14": {"name": "il10ra_site1_sap_25_mot_HHH_b1_05254_000000006_0001_1_19_H_._HHH_b1_06224_0001_0000400029_0000001_0_0001 (protein)", "chain": "SSSSDLRRRLYELLRKIAELIHEGNEEEARELIEEAQEVAEEAGNDVARAQLEYLERHLNSSSSS"}, "B15": {"name": "il10ra_site1_sap_15_mot_HHH_b2_07006_000000108_0001_1_19_H_._HHH_b2_04667_0001_0000300007_0000001_0_0001_af2pred_0001 (protein)", "chain": "SSSSSSEQETRAIRLLLETSLEAGDEEALKKLLRAAKRIAKLANDPELQRLIEEIEEELSSSSSS"}, "B16": {"name": "il10ra_site1_normal_mot_HHH_b2_02262_af2_000000007_0001_40_53_H_._429e03ef57af3a05afeb6c1314328484_0001_1_af2_0001_0000500025_0000001_0 (protein)", "chain": "DEELLREILEKLKKVPDPEVRELAEEAEELLERGNPERAAQVLIRAIFLAGDPELLKLLWEANKK"}, "B17": {"name": "il10ra_site1_sap_24_mot_HHH_b1_01879_000000050_0001_1_18_H_._HHH_b1_03413_af2_0001_0000900032_0000002_0_0001_af2pred_dldesign_0_af2pred (protein)", "chain": "SSSSDAARARAAALRRRVTKAAEAKNYEELEKLLKELEALAKATDDADLLAYVDFEKKALSSSSS"}, "B18": {"name": "il10ra_site1_normal_mot_HHH_b1_05357_000000034_0001_23_39_H_._HHH_b2_03710_0002_0000200007_0000001_0 (protein)", "chain": "SSSSDREEFRERVEELLEEAEQISDRQRVSHLLIRAYALAHQANDPELEELVREVAKELVSSSSS"}, "B19": {"name": "il10ra_site1_sap_24_mot_HHH_b1_04177_000000174_0001_1_19_H_._HHH_b1_03006_0001_0000300020_0000001_0_0001_af2pred_0001 (protein)", "chain": "SSSSSHEEVFRLLREIAELDHEGDHERARELLEEAQEIAEEAGNLLFRVILEFLQEHLERESSSS"}},
  "note": "Some of the results follow.",
  "data": [
    {"target": "il10ra, Q13651", "assay": "yeast display titration", "values": [
      {"binder": "B1", "apparent Kd": "inactive: no binding seen"},
      {"binder": "B2", "apparent Kd": "inactive: no binding seen"},
      {"binder": "B3", "apparent Kd": "inactive: no binding seen"},
      {"binder": "B4", "apparent Kd": "inactive: no binding seen"},
      {"binder": "B5", "apparent Kd": "inactive: no binding seen"},
      {"binder": "B6", "apparent Kd": "inactive: no binding seen"},
      {"binder": "B7", "apparent Kd": "inactive: no binding seen"},
      {"binder": "B8", "apparent Kd": "inactive: no binding seen"},
      {"binder": "B9", "apparent Kd": "inactive: no binding seen"},
      {"binder": "B10", "apparent Kd": "inactive: no binding seen"},
      {"binder": "B11", "apparent Kd": "inactive: no binding seen"},
      {"binder": "B12", "apparent Kd": "inactive: no binding seen"},
      {"binder": "B13", "apparent Kd": "inactive: no binding seen"},
      {"binder": "B14", "apparent Kd": "inactive: no binding seen"},
      {"binder": "B15", "apparent Kd": "inactive: no binding seen"},
      {"binder": "B16", "apparent Kd": "inactive: no binding seen"},
      {"binder": "B17", "apparent Kd": "inactive: no binding seen"},
      {"binder": "B18", "apparent Kd": "inactive: no binding seen"},
      {"binder": "B19", "apparent Kd": "inactive: no binding seen"}
    ]}
  ]
}
